Measured data: PubChem BioAssay AID1159578 (Peter MacCallum Cancer Centre, 2015)
The deposit covers about 18,000 reagents; shown is a random part of them. About 1,030 of all reagents (5.7%) were called active. 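Inactive calls also include pools with fewer than 3300 nuclei, whose migration was not assessed.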 Raw values vary from plate to plate and are shown uncorrected. No sequences are given here.

Test: 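siRNA pools altering how lymphatic endothelial cells close a scratch wound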 (primary screen)
Cells: human lymphatic endothelial cells
Knock-down reagent: siRNA pool against human genes, 40 nM
Timing: 48 h after transfection
Measurement: 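High-content imaging of dye-stained cells in a scratch assay measures filled wound area and nuclei per well; duplicate means given as ratio to mock and robust z-score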
Direction: migration robust z-score: higher = faster migration into the scratch; migration relative to mock: higher = more scratch area covered than mock; nuclei per well: higher = more cells in the well
Hit rule: 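Pools averaging fewer than 3300 nuclei are never called; remaining pools count as changed when migration robust z lies outside -2 to 2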
Calls: active = migration changed; inactive = no migration change, or too few cells

no.	gene	migration robust z-score	migration class with cell-count check	migration relative to mock	nuclei per well, duplicate mean	call
1	PRSS54	0.75	migration z between -2 and 2; enough cells	0.95	6320	inactive
2	COL25A1	0.38	migration z between -2 and 2; enough cells	0.88	5640	inactive
3	DMTN	0.57	migration z between -2 and 2; enough cells	1.03	6839	inactive
4	FBXO47	-0.47	migration z between -2 and 2; enough cells	0.72	3618	inactive
5	PPM1M	0.1	migration z between -2 and 2; enough cells	0.82	6134	inactive
6	MC4R	0.88	migration z between -2 and 2; enough cells	0.98	5553	inactive
7	ZBED4	-1.22	migration z between -2 and 2; enough cells	0.56	5913	inactive
8	GSTT2B	1.03	migration z between -2 and 2; enough cells	1.16	6725	inactive
9	CFAP53	2.47	migration z above 2; enough cells	1.52	6934	active
10	SLC60A2	3	migration z above 2; enough cells	1.66	7042	active
11	RPS6KA4	0.11	migration z between -2 and 2; enough cells	0.82	5154	inactive
12	CABP2	0.82	migration z between -2 and 2; enough cells	1.1	7280	inactive
13	HDAC3	-0.28	migration z between -2 and 2; enough cells	0.75	5197	inactive
14	AHSA1	-0.42	migration z between -2 and 2; enough cells	0.73	4863	inactive
15	DFFA	-1.09	migration z between -2 and 2; enough cells	0.6	6410	inactive
16	ACTB	1.82	migration z between -2 and 2; enough cells	1.35	5654	inactive
17	SLC4A9	1.14	migration z between -2 and 2; enough cells	1.02	5078	inactive
18	ADAM7	0.2	migration z between -2 and 2; enough cells	0.84	5978	inactive
19	ITGA11	0.55	migration z between -2 and 2; enough cells	0.91	5982	inactive
20	SAMM50	-0.2	migration z between -2 and 2; enough cells	0.84	4362	inactive
21	ZIM2	2.06	migration z above 2; enough cells	1.42	5860	active
22	SCARA3	-0.57	migration z between -2 and 2; enough cells	0.7	4463	inactive
23	ETF1	-0.88	migration z between -2 and 2; enough cells	0.64	6148	inactive
